Source: PubChem BioAssay AID330 (DTP/NCI, 2004)
The list shows only some results of the screen, not a fair sample: it is rich in T/C values a quarter to a half above the control, in often repeated tests (any T/C) and in doses without a T/C. Other doses and runs of a compound stand elsewhere. T/C is the treated group as % of the vehicle group. Some doses have a count of surviving animals in place of a T/C: the source files T/C as zero there, which appears to mark a toxic dose or a test without result, not a measured value. Some doses without a T/C left all or most animals alive at the check, yet need not have been tolerated: survival well below the control is almost never listed, so the zero probably covers shortened survival too. Counts of survivors are from the toxicity check (mostly the fifth day) where no day follows; animals may have died later. Schedule codes are those of the source, taken here to give the interval after Q, in days (D) or hours (H), and the number of doses after X. Some entries hold several experiments; the values are given in rising order. Some molecules as drawn cover several salts, stereoisomers or complexes of the source; a dose is that of the sample tested. For survival time, this PubChem deposit counts one and a half times the control or more as active, and values a quarter to a half above the control carry no call in these data; other NCI protocols may use other cut-offs.

System: P388 leukemia ip, CD2F1 mice, survival T/C
Test: NCI In Vivo Anticancer Drug Screen. Data for tumor model P388 Leukemia (intraperitoneal) in CD2F1 (CDF1) mice
Conditions: T/C endpoint: median survival time, higher T/C = longer survival
[1] = dose: 100.0 mg/kg/injection, schedule: Q01DX009 (ip), vehicle: Klucel (hydroxypropylcellulose) (HPC)
[2] = dose: 120.0 mg/kg/injection, schedule: Q01DX005 (ip), vehicle: Klucel (hydroxypropylcellulose) (HPC)
[3] = dose: 240.0 mg/kg/injection, schedule: Q01DX005 (ip), vehicle: Klucel (hydroxypropylcellulose) (HPC)
[4] = dose: 60.0 mg/kg/injection, schedule: Q01DX005 (ip), vehicle: saline with Tween-80
[5] = dose: 240.0 mg/kg/injection, schedule: Q01DX005 (ip), vehicle: saline with Tween-80
[6] = dose: 200.0 mg/kg/injection, schedule: Q01DX005 (ip), vehicle: saline with Tween-80
[7] = dose: 100.0 mg/kg/injection, schedule: Q01DX005 (ip), vehicle: Klucel (hydroxypropylcellulose) (HPC)

`CNc1ccc2c(cc1=O)C(NC(C)=O)CCc1cc(OC)c(OC)c(OC)c1-2` (stereo not given) was tested, and the T/C (dose: 0.04 mg/kg/injection, schedule: Q01DX009 (ip), vehicle: Klucel (hydroxypropylcellulose) (HPC)) was 126 % of control, the T/C (dose: 0.08 mg/kg/injection, schedule: Q01DX009 (ip), vehicle: Klucel (hydroxypropylcellulose) (HPC)) was 148 % of control and the T/C (dose: 0.12 mg/kg/injection, schedule: Q01DX009 (ip), vehicle: Klucel (hydroxypropylcellulose) (HPC)) was 141 % of control. For the same molecule, the T/C (dose: 0.16 mg/kg/injection, schedule: Q01DX009 (ip), vehicle: Klucel (hydroxypropylcellulose) (HPC)) was 142 % of control, the survivor count (dose: 0.25 mg/kg/injection, schedule: Q01DX009 (ip), vehicle: Klucel (hydroxypropylcellulose) (HPC)) was 4 of 6 and the survivor count (dose: 0.31 mg/kg/injection, schedule: Q01DX009 (ip), vehicle: Klucel (hydroxypropylcellulose) (HPC)) was 5 of 6. For the same molecule, the survivor count (dose: 0.5 mg/kg/injection, schedule: Q01DX009 (ip), vehicle: Klucel (hydroxypropylcellulose) (HPC)) was 1 of 6 and 5 of 6, the survivor count (dose: 0.62 mg/kg/injection, schedule: Q01DX009 (ip), vehicle: Klucel (hydroxypropylcellulose) (HPC)) was 4 of 6 and the survivor count (dose: 1.0 mg/kg/injection, schedule: Q01DX009 (ip), vehicle: Klucel (hydroxypropylcellulose) (HPC)) was 1 of 6 and 3 of 6. The survivor count (dose: 1.25 mg/kg/injection, schedule: Q01DX009 (ip), vehicle: Klucel (hydroxypropylcellulose) (HPC)) was 2 of 6, the survivor count (dose: 2.0 mg/kg/injection, schedule: Q01DX009 (ip), vehicle: Klucel (hydroxypropylcellulose) (HPC)) was 0 of 6 and the survivor count (dose: 2.5 mg/kg/injection, schedule: Q01DX009 (ip), vehicle: Klucel (hydroxypropylcellulose) (HPC)) was 0 of 6. For the same molecule, the survivor count (dose: 5.0 mg/kg/injection, schedule: Q01DX009 (ip), vehicle: Klucel (hydroxypropylcellulose) (HPC)) was 0 of 6, the survivor count (dose: 10.0 mg/kg/injection, schedule: Q01DX009 (ip), vehicle: Klucel (hydroxypropylcellulose) (HPC)) was 0 of 6 and the survivor count (dose: 20.0 mg/kg/injection, schedule: Q01DX009 (ip), vehicle: Klucel (hydroxypropylcellulose) (HPC)) was 0 of 6. The survivor count (dose: 40.0 mg/kg/injection, schedule: Q01DX009 (ip), vehicle: Klucel (hydroxypropylcellulose) (HPC)) was 0 of 6.

In the case of `S=C(C(=S)N1CCOCC1)N1CCOCC1`, the T/C [1] is reported as 144 % of control.

For `O=C1C(c2ccc3ccccc3n2)=C(O)c2ccccc21`, the survivor count [2] was 3 of 6 and the survivor count [3] was 1 of 6.

For `CC1CC(C)(C)C2=NCCN21` (stereo not given), the survivor count (dose: 100.0 mg/kg/injection, schedule: Q01DX009 (ip), vehicle: water) was 0 of 6, the survivor count (dose: 120.0 mg/kg/injection, schedule: Q01DX005 (ip), vehicle: saline) was 0 of 6 and the survivor count (dose: 240.0 mg/kg/injection, schedule: Q01DX005 (ip), vehicle: saline) was 0 of 6.

In the case of `CCN(CC)C(=O)C1(C)NS(=O)(=O)c2ccccc2C1=O` (stereo not given), the T/C (dose: 200.0 mg/kg/injection, schedule: Q01DX009 (ip), vehicle: saline with Tween-80) is reported as 125 % of control.

In the case of `CCCCCCCCCCCCCCCCCCCC(O)CCCCCCCCC` (stereo not given), the survivor count [4] is reported as 6 of 6 and the survivor count [5] is reported as 6 of 6.

For `N#C[S][Hg][c]1ccccc1`, the survivor count [5] was 0 of 6.

In the case of `Nc1nc(N)c(N=O)c(Nc2ccc(Cl)c(Cl)c2)n1`, the survivor count (dose: 400.0 mg/kg/injection, schedule: Q04DX003 (ip), vehicle: saline with Tween-80) is reported as 3 of 6.

`CCC(C)N(C)/N=N/c1nc[nH]c1C(N)=O` (stereo not given) was tested, and the survivor count (dose: 400.0 mg/kg/injection, schedule: Q01DX009 (ip), vehicle: saline with Tween-80) was 3 of 6.

In the case of `COc1ccc2c(c1)C(=O)C1(CC2)OC1c1cccnc1` (stereo not given), the T/C (dose: 200.0 mg/kg/injection, schedule: Q01DX009 (ip), vehicle: other) is reported as 129 % of control.

For `c1ccc2c(c1)N=C(NNC1=Nc3ccccc3SC1)CS2`, the survivor count [4] was 6 of 6, the survivor count (dose: 120.0 mg/kg/injection, schedule: Q01DX005 (ip), vehicle: saline with Tween-80) was 6 of 6 and the survivor count [5] was 6 of 6.

With `Nc1nc(=S)c2ncn(C3OC(CO)C(O)C3O)c2[nH]1` (stereo not given) the T/C (dose: 4.0 mg/kg/injection, schedule: Q01DX010 (ip), vehicle: saline) was 127 % of control, the survivor count (dose: 16.0 mg/kg/injection, schedule: Q01DX010 (ip), vehicle: saline) was 6 of 6 and the T/C (dose: 50.0 mg/kg/injection, schedule: Q01DX005 (ip), vehicle: saline with Tween-80) was 126 % of control. The T/C (dose: 200.0 mg/kg/injection, schedule: Q04DX003 (ip), vehicle: saline sonified) was 136 % of control, the T/C (dose: 200.0 mg/kg/injection, schedule: Q04DX003 (ip), vehicle: saline with Tween-80) was 130 % of control and the T/C (dose: 300.0 mg/kg/injection, schedule: Q04DX003 (ip), vehicle: saline with Tween-80) was 126 % of control.

For `Cc1cccc(C2N=C3Oc4ccccc4C=C3C(=O)N2)c1` (stereo not given), the survivor count (dose: 200.0 mg/kg/injection, schedule: Q01DX005 (ip), vehicle: Klucel (hydroxypropylcellulose) (HPC)) was 2 of 6.

In the case of `C[C@H]1CC(=O)SC1=O`, the survivor count (dose: 100.0 mg/kg/injection, schedule: Q04DX002 (ip), vehicle: saline) is reported as 5 of 6.

With `CN(N=Nc1ccc(C#N)cc1)C(C)(C)C` the survivor count [6] was 0 of 6.

For `C[C@H]1C(=O)CCC2[C@]3(C)CCC4(CO)[C@@H]5CC(C)(C)C(=O)C[C@]5(C)CC[C@]4(C)C3CC[C@@]21C` (stereo not given in full), the survivor count (dose: 62.0 mg/kg/injection, schedule: Q01DX005 (ip), vehicle: Klucel (hydroxypropylcellulose) (HPC)) was 6 of 6.

For `COc1ccc(N=C([Se])CCC(C)C)cc1`, the survivor count (dose: 50.0 mg/kg/injection, schedule: Q01DX009 (ip), vehicle: Klucel (hydroxypropylcellulose) (HPC)) was 1 of 6, the survivor count [1] was 0 of 6 and the survivor count (dose: 200.0 mg/kg/injection, schedule: Q01DX009 (ip), vehicle: Klucel (hydroxypropylcellulose) (HPC)) was 0 of 6.

`C1CCC(N2CSC3CCCCC32)CC1` (stereo not given) was tested, and the survivor count [3] was 0 of 6.

With `Cc1cc2c(cc1C)C(=O)C(CN1CCCCC1)CO2` (stereo not given) the survivor count (dose: 400.0 mg/kg/injection, schedule: Q01DX001 (ip), vehicle: saline) was 0 of 6.

For `COc1ccc2ncc(CO)c(CO)c2c1`, the survivor count (dose: 50.0 mg/kg/injection, schedule: Q01DX005 (ip), vehicle: Klucel (hydroxypropylcellulose) (HPC)) was 5 of 5 and the survivor count [7] was 5 of 5.

In the case of `CNC(=O)OCC1=C(COC(=O)NC)C2OC1C(C(=O)OC)=C2c1ccc(Cl)cc1` (stereo not given), the survivor count (dose: 25.0 mg/kg/injection, schedule: Q01DX009 (ip), vehicle: distilled water + Tween-80) is reported as 6 of 6.

With `N#Cc1cn(C2OC(CO)C(O)C2O)c2ncnc(N)c12` (stereo not given) the T/C (dose: 0.07 mg/kg/injection, schedule: Q04DX003 (ip), vehicle: other) was 126 % of control, the survivor count (dose: 0.45 mg/kg/injection, schedule: Q04DX003 (ip), vehicle: other) was 5 of 6 and the survivor count (dose: 6.25 mg/kg/injection, schedule: Q04DX003 (ip), vehicle: saline with Tween-80) was 6 of 6. The survivor count (dose: 12.5 mg/kg/injection, schedule: Q04DX003 (ip), vehicle: saline with Tween-80) was 0 of 6, the survivor count (dose: 25.0 mg/kg/injection, schedule: Q04DX003 (ip), vehicle: saline with Tween-80) was 1 of 6 and the T/C (dose: 100.0 micrograms/kg/injection, schedule: Q04DX003 (ip), vehicle: other) was 128 % of control.

In the case of `[N-]=[N+]=Nc1cc(Cl)nnc1-c1ccccc1`, the survivor count [2] is reported as 3 of 6 and the survivor count [3] is reported as 0 of 6.

In the case of `CN(C)C1c2cc(Cl)ccc2-c2c(Cl)cc(Cl)cc21` (stereo not given), the survivor count [7] is reported as 6 of 6.

In the case of `COc1cc2cc[n+]3c4ccc([N+](=O)[O-])cc4ccc3c2cc1OC`, the T/C (dose: 25.0 mg/kg/injection, schedule: Q01DX005 (ip), vehicle: saline with Tween-80) is reported as 132 % of control, the T/C (dose: 50.0 mg/kg/injection, schedule: Q01DX005 (ip), vehicle: saline with Tween-80, evaluated on day 20) is reported as 127 % of control and the T/C (dose: 50.0 mg/kg/injection, schedule: Q01DX005 (ip), vehicle: saline with Tween-80, evaluated on day 30) is reported as 132 % of control. For the same molecule, the T/C (dose: 100.0 mg/kg/injection, schedule: Q01DX005 (ip), vehicle: saline with Tween-80, evaluated on day 20) was 149 % of control, the T/C (dose: 100.0 mg/kg/injection, schedule: Q01DX005 (ip), vehicle: saline with Tween-80, evaluated on day 30) was 141 % of control and the survivor count [6] was 2 of 5.
